Measurements published in paper PMC3582507.

By UniProt entry, the sequences of proteins in these tests, tags left out.
UniProt P25293: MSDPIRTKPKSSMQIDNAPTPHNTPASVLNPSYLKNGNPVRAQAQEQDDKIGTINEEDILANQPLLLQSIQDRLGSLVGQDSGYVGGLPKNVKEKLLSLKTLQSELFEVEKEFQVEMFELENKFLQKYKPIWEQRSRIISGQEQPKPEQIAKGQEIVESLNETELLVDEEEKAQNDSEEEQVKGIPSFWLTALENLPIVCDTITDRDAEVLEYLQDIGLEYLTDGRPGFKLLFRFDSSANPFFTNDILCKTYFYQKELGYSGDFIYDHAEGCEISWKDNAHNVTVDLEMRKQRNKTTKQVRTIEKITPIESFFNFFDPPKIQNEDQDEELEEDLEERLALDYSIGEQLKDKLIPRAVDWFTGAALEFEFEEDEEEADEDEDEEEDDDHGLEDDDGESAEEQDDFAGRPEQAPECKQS
UniProt P06780: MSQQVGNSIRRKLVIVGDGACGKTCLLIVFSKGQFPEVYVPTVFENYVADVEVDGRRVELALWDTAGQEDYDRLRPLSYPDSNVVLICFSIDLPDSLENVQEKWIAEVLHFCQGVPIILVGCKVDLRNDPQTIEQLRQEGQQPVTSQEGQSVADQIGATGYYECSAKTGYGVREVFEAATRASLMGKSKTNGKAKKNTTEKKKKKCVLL

Biological target: T1, Gps1-TAP (S. cerevisiae) (UniProt Q99299)
T1 sequence: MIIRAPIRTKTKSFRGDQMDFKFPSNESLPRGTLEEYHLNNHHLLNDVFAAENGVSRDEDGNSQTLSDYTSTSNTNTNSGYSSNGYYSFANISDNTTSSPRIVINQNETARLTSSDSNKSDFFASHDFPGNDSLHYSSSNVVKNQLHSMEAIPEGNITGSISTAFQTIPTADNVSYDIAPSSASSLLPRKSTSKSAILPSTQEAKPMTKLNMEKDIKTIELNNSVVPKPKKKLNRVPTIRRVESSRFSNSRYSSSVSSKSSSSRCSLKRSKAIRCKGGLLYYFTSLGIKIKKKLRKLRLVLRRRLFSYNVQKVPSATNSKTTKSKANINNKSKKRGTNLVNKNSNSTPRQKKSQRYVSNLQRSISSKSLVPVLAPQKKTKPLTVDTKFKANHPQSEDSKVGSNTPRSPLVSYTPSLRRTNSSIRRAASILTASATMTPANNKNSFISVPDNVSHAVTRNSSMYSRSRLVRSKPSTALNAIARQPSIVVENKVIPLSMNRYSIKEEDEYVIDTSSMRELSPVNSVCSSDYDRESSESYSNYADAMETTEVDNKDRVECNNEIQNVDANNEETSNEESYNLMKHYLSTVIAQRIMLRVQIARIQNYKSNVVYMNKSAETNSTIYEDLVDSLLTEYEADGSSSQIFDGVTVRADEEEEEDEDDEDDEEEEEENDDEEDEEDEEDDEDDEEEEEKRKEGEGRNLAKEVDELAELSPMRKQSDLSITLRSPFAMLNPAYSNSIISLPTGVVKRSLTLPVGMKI
Assay: affinity purification with mass spectrometry; large-scale TAP purification of Gps1-TAP from 1.6-l yeast culture with Dynabeads coupled to rabbit IgG; interacting proteins identified by mass spectrometry

| binding | Substance |
| --- | --- |
| binds | Nap1 (from UniProt P25293 1-417) |
| binds | Rho1 (in purified Gps1-TAP complexes) (from UniProt P06780 1-209) |

No constants are given. Whether binding was seen depends on the method and setting. Binding seen in cells or lysates may run through a third protein. A yes stands for co-enrichment or nearness to the bait. Other partners may have been found.
